Test results reported in the supplement of paper PMC10849652.
The other results are listed elsewhere or left out.

Amino acid sequences for entries named in this document (tags omitted). A change or cut given only in a name is not applied to a line headed by its entry.
UniProt P02724: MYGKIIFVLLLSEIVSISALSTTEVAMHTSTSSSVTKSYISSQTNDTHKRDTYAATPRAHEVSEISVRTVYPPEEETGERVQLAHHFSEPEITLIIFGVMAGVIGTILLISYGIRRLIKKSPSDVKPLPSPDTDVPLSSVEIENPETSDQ
UniProt P53701: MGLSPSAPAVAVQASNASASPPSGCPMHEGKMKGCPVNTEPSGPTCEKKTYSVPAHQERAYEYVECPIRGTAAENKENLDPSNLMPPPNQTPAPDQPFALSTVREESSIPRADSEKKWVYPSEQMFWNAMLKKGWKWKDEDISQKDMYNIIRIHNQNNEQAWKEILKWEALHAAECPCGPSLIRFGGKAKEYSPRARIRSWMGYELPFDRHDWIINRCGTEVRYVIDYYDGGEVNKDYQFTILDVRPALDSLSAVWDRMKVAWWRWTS
UniProt Q8TDG4: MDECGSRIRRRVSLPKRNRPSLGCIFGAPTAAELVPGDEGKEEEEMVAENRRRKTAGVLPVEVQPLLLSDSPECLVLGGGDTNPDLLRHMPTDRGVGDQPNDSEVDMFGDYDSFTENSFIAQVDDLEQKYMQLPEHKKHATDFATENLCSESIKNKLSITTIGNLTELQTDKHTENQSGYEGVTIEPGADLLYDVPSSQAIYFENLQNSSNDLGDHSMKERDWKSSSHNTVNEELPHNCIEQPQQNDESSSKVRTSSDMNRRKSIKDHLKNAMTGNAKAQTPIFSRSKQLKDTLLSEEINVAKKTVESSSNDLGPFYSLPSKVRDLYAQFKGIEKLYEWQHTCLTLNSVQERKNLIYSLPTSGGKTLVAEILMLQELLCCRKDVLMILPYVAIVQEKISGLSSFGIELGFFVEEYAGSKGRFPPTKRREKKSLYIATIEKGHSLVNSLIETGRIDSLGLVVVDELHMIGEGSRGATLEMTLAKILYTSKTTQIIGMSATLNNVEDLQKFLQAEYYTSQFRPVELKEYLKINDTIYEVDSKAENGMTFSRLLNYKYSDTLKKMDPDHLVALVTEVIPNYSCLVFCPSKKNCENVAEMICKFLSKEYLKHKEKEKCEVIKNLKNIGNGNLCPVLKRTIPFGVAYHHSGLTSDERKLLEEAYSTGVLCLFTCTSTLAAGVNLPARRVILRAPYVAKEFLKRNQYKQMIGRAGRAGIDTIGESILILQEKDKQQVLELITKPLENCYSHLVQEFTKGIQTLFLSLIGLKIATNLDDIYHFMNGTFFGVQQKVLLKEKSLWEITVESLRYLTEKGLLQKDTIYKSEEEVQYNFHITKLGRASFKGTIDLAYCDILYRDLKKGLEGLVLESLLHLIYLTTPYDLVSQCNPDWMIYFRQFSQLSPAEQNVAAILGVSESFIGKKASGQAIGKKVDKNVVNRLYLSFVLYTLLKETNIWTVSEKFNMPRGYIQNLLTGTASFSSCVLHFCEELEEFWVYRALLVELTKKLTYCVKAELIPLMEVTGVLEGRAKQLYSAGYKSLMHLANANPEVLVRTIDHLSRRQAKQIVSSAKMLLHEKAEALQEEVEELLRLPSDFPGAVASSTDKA
UniProt Q5GLZ8: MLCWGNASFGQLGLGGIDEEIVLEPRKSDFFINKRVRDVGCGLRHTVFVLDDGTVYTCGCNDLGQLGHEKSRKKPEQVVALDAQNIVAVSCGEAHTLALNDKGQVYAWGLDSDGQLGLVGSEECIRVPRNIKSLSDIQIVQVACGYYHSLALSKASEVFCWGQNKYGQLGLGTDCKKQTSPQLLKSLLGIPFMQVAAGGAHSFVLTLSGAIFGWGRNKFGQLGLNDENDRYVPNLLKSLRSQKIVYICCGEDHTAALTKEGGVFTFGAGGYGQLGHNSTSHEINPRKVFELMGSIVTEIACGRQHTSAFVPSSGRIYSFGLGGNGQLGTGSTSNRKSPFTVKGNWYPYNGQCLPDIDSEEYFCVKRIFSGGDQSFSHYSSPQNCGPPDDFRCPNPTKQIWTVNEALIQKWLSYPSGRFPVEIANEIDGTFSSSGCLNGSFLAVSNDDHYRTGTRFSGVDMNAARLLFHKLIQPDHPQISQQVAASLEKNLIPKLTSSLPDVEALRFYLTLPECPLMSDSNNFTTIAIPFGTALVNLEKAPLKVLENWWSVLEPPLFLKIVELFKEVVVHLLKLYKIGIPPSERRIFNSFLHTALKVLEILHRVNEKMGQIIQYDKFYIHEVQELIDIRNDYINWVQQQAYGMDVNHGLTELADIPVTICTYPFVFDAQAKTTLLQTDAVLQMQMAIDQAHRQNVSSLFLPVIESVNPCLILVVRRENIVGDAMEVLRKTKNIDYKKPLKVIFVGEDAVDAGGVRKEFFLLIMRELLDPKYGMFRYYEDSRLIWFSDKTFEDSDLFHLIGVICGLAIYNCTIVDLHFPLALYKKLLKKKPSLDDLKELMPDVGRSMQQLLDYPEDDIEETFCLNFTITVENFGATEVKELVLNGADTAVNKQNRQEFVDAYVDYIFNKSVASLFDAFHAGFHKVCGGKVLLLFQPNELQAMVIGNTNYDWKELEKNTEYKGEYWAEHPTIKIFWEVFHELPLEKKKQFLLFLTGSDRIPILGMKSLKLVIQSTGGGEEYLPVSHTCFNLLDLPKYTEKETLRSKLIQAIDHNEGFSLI
UniProt Q92759: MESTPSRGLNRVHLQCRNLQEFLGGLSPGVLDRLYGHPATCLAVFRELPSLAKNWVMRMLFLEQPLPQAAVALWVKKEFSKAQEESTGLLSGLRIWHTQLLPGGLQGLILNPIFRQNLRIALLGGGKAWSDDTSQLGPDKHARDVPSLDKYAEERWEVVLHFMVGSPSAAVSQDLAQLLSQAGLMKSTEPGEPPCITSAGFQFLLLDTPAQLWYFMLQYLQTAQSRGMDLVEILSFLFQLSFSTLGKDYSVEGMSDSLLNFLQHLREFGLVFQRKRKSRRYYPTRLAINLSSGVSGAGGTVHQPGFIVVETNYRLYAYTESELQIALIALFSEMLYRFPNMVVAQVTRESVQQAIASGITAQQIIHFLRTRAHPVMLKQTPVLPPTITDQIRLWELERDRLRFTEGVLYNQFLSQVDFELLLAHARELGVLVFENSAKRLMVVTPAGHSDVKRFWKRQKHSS
UniProt Q96CS2: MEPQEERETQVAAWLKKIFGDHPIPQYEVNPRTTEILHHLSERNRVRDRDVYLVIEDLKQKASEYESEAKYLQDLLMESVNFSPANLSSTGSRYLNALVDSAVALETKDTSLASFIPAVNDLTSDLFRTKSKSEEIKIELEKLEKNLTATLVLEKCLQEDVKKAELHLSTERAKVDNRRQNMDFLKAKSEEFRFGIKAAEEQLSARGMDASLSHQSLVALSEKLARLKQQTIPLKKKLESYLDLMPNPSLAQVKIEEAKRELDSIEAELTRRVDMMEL
UniProt Q16836: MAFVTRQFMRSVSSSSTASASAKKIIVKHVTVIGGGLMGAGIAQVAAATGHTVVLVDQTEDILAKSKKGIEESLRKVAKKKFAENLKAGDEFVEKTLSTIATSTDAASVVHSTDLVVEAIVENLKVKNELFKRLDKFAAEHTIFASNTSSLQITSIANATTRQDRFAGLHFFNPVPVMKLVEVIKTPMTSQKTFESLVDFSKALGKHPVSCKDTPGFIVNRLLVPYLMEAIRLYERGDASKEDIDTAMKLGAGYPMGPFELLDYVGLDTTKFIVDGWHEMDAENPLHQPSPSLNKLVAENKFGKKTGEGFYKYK
UniProt P42357: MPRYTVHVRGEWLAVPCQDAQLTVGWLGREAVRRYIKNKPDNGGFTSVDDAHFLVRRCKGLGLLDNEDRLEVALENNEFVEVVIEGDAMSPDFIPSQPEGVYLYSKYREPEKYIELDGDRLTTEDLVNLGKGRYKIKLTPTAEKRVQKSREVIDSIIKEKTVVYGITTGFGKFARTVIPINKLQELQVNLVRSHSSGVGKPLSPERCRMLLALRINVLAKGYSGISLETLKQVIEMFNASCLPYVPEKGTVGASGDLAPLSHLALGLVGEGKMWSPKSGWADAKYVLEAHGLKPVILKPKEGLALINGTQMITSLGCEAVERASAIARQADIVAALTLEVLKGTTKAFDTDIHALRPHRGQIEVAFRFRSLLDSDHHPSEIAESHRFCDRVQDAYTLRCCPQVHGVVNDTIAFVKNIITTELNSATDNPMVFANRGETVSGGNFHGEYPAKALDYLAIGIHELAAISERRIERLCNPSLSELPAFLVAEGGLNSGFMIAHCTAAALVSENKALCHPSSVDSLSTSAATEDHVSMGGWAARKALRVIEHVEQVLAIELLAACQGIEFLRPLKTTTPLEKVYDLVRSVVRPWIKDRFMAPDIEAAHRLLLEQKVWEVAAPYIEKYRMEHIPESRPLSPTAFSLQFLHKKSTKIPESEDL
UniProt Q9NYZ3: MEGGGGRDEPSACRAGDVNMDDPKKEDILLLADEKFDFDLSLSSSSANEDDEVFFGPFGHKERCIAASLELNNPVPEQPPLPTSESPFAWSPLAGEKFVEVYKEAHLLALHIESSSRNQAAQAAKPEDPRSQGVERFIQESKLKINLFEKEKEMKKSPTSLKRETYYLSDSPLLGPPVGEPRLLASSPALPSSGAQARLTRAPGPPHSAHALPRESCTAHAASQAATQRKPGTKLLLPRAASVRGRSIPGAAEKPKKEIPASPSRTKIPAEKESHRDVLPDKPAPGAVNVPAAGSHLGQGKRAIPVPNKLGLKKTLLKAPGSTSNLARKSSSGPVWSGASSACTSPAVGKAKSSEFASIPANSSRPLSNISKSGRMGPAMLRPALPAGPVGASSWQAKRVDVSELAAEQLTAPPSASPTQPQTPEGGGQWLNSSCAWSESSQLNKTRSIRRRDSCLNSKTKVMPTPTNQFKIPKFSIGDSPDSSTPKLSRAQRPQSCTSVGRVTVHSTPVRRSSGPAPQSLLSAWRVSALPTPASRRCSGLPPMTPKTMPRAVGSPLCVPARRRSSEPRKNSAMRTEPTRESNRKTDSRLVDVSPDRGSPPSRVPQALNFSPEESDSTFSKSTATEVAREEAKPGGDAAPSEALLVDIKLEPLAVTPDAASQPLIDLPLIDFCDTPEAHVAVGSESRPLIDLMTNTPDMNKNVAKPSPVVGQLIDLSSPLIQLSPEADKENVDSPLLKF
UniProt P51858: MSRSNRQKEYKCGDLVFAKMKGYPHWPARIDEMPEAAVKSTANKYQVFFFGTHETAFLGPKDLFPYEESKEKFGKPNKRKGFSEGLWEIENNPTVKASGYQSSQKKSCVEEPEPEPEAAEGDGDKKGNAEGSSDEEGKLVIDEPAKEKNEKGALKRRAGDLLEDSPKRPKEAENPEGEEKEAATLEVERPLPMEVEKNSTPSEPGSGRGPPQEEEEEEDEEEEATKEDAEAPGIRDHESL
UniProt Q9Y450, whole entry, looked up: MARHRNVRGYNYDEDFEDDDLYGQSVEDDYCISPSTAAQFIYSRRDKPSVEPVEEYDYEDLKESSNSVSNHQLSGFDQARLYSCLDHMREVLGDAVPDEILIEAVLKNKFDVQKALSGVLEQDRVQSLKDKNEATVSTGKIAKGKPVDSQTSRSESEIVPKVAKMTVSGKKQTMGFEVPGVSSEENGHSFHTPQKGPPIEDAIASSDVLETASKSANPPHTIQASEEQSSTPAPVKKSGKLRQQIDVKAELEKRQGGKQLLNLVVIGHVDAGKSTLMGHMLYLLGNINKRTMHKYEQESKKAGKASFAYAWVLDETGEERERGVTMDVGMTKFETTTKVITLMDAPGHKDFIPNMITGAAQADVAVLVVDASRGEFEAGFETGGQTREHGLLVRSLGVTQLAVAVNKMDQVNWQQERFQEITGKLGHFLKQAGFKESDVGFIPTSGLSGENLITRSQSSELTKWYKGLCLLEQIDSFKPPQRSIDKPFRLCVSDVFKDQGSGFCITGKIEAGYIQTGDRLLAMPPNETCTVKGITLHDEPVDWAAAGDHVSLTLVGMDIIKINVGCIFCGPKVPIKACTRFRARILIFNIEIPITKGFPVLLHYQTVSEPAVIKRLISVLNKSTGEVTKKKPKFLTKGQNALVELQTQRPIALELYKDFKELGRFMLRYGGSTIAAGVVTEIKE
UniProt Q8IYD1, whole entry, looked up: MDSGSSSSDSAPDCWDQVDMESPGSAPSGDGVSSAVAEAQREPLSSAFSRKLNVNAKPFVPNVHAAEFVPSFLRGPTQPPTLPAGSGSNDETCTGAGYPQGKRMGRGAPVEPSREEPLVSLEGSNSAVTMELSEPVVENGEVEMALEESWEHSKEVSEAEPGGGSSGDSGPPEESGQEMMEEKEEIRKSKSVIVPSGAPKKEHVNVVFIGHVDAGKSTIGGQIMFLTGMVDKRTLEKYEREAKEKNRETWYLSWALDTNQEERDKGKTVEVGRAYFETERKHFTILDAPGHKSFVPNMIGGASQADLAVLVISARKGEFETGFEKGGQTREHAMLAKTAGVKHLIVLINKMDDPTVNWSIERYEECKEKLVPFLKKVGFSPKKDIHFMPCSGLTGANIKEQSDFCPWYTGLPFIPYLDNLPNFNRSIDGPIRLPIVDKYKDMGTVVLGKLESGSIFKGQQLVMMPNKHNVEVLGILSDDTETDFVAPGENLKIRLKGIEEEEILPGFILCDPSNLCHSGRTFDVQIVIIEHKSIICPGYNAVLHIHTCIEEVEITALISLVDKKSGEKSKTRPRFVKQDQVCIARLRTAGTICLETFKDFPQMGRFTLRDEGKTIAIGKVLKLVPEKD

Tests used:
Assay in all cases: log2 fold change, soluble protein after heating vs DMSO (PISA); higher = thermal stabilisation; K562 cells, 10 uM, 30 min; active = over 0.2 and 3.5 SD of the protein, either way, in both replicates (recomputed)
[1] = compound: CN1CCN(CCOc2cc(OC3CCOCC3)c3c(Nc4c(Cl)ccc5c4OCO5)ncnc3c2)CC1 [saracatinib]
Method in brief: (§1)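 K562 cells at 2×10^6 cells/mL were given 10 μM compound for 30 min. Aliquots then went through 3 min of heating across 48°C-58°C, were pooled, and were extracted in PBS with 0.5% NP-40 at 4°C, and the supernatant after 21,000xg for 90 min was quantified by TMTpro 16plex LC-MS/MS with channel sums equalised. Thermal stability relative to control samples, from duplicates, is given as log2 fold change.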

[2] = compound: CN1CCN(c2nc(C3=C(c4c[nH]c5ccccc45)C(=O)NC3=O)c3ccccc3n2)CC1 [sotrastaurin]
Method in brief: as §1

[3] = compound: CN1CC[C@H](c2c(O)cc(O)c3c(=O)cc(-c4ccccc4Cl)oc23)[C@H](O)C1 [alvocidib]
Method in brief: as §1

[4] = compound: CN1CCc2c(c3ccccc3n2Cc2ccc(C(=O)NO)cc2)C1 [Tubastatin A]
Method in brief: as §1

[5] = compound: CNC(=O)C1=CC=CC=C1NC2=NC(=NC=C2Cl)NC3=C(C=C(C=C3)N4CCOCC4)OC
Method in brief: as §1

[6] = compound: CNC(=O)c1ccc(Nc2ncc(C(F)(F)F)c(NCc3nccnc3N(C)S(C)(=O)=O)n2)cc1 [defactinib]
Method in brief: as §1

[7] = compound: CNCc1ccc(-c2[nH]c3cc(F)cc4c3c2CCNC4=O)cc1 [rucaparib]
Method in brief: as §1

[8] = compound: CNc1nc(-c2ccc3c(N)n[nH]c3c2)cc(N2C[C@@H](C(=O)NC3CCCCC3)CC[C@H]2C)n1
Method in brief: as §1

[9] = compound: COC(=O)N[C@@H](C)CNc1nccc(-c2cn(C(C)C)nc2-c2cc(Cl)cc(NS(C)(=O)=O)c2F)n1 [encorafenib]
Method in brief: as §1

[10] = compound: COC(=O)[C@H](CCSC)NC(=O)C1=C(C=C(C=C1)NC[C@H](CS)N)C2=CC=CC=C2
Method in brief: as §1

Measured: log2 fold change

GYPA (UniProt P02724)
inactive: [1] -0.068 | [2] -0.037 | [3] -0.123 | [4] -0.016 | [5] -0.128 | [6] -0.066 | [7] -0.072 | [8] 0.096 | [9] -0.131 | [10] 0.075

GSTZ1 (UniProt G3V4T6)
inactive: [1] 0.175 | [2] 0.094 | [3] 0.018 | [4] 0.018 | [5] 0.026 | [6] -0.034 | [7] -0.058 | [8] 0.101 | [9] -0.037 | [10] 0.003

HERC1 (UniProt Q15751)
inactive: [1] 0.008 | [2] -0.043 | [3] -0.012 | [4] -0.046 | [5] 0.017 | [6] -0.016 | [7] -0.012 | [8] 0.006 | [9] 0.005 | [10] -0.019

HCCS (UniProt P53701)
inactive: [1] 0.039 | [2] 0.051 | [3] 0 | [4] -0.038 | [5] -0.02 | [6] 0.011 | [7] -0.003 | [8] -0.062 | [9] -0.049 | [10] 0.049

HBG1 (UniProt P69891)
inactive: [1] -0.001 | [2] 0.021 | [3] -0.018 | [4] -0.007 | [5] -0.036 | [6] -0.023 | [7] -0.031 | [8] -0.006 | [9] -0.024 | [10] -0.046

HDAC3 isoform 2 (UniProt O15379)
inactive: [1] -0.022 | [2] -0.039 | [3] 0.072 | [4] 0.04 | [5] -0.039 | [6] -0.073 | [7] 0.074 | [8] 0.003 | [9] -0.067 | [10] -0.07

HELQ (UniProt Q8TDG4)
inactive: [1] 0.115 | [2] 0.039 | [3] -0.124 | [4] -0.043 | [5] 0.005 | [6] 0.025 | [7] -0.009 | [8] -0.155 | [9] -0.021 | [10] 0.047

HEXIM1 (UniProt O94992)
inactive: [1] -0.042 | [2] 0.065 | [3] 0.074 | [4] -0.011 | [5] -0.061 | [6] 0.073 | [7] 0.053 | [8] -0.042 | [9] -0.002 | [10] -0.049

HERC4 (UniProt Q5GLZ8)
inactive: [1] 0.07 | [2] -0.002 | [3] -0.075 | [4] 0.006 | [5] -0.01 | [6] -0.034 | [7] -0.03 | [8] -0.038 | [9] 0.021 | [10] -0.025

GSPT1 isoform 3 (UniProt P15170)
inactive: [1] 0.004 | [2] 0.033 | [3] -0.04 | [4] 0 | [5] 0.105 | [6] 0.025 | [7] -0.055 | [8] -0.001 | [9] -0.025 | [10] -0.013

GTF2H4 (UniProt Q92759)
inactive: [1] -0.05 | [2] 0.089 | [3] -0.061 | [4] -0.084 | [6] -0.049 | [7] 0.306 | [8] 0.035 | [9] -0.459 | [10] 0.172

HAUS1 (UniProt Q96CS2)
inactive: [1] 0 | [2] -0.017 | [3] -0.011 | [4] 0.166 | [5] -0.072 | [6] 0.112 | [7] 0.07 | [8] 0.038 | [9] -0.1 | [10] 0.098

HADH isoform 2 (UniProt Q16836)
inactive: [1] -0.02 | [2] 0.031 | [3] 0.036 | [4] -0.012 | [5] -0.014 | [6] -0.027 | [7] -0.065 | [8] 0.183 | [9] -0.014 | [10] 0.02

H6PD (UniProt O95479)
inactive: [1] 0.042 | [2] -0.039 | [3] -0.006 | [4] 0.087 | [5] -0.068 | [6] 0.25 | [7] -0.118 | [8] -0.165 | [9] -0.048 | [10] -0.058

GTF2B (UniProt Q00403)
inactive: [1] -0.155 | [2] -0.103 | [4] 0.135 | [5] -0.013 | [6] -0.144 | [7] -0.017 | [8] 0.026 | [9] 0.023 | [10] -0.01

GTF2H2 (UniProt Q13888)
inactive: [1] -0.024 | [2] -0.035 | [3] -0.026 | [4] 0.068 | [5] -0.005 | [6] -0.093 | [7] 0.032 | [8] -0.013 | [9] 0.002 | [10] -0.057

HADHA (UniProt P40939)
inactive: [1] -0.102 | [2] 0.032 | [4] 0.05 | [5] 0.044 | [6] -0.19 | [7] 0.177 | [9] -0.024 | [10] -0.191
active: [8] 0.595

Taken from the entries so far (two entries):
HERC4 (UniProt Q5GLZ8)
inactive: [1] 0.07 | [2] -0.002 | [3] -0.075 | [4] 0.006 | [5] -0.01 | [6] -0.034 | [7] -0.03 | [8] -0.038 | [9] 0.021 | [10] -0.025

GSPT1 isoform 3 (UniProt P15170)
inactive: [1] 0.004 | [2] 0.033 | [3] -0.04 | [4] 0 | [5] 0.105 | [6] 0.025 | [7] -0.055 | [8] -0.001 | [9] -0.025 | [10] -0.013

Further entries:

GTPBP1 (UniProt O00178)
inactive: [1] 0.006 | [2] 0.059 | [3] -0.014 | [4] 0.012 | [5] -0.056 | [6] 0.008 | [7] 0.046 | [8] 0.059 | [9] 0.057 | [10] -0.042

HAL (UniProt P42357)
inactive: [1] -0.393 | [2] -0.059 | [3] -0.24 | [4] 0.093 | [6] -0.003 | [7] -0.137 | [8] 0 | [9] -0.209 | [10] -0.135

HARS2 (UniProt P49590)
inactive: [1] 0.056 | [2] 0.023 | [3] 0.002 | [4] -0.004 | [5] 0.017 | [6] 0 | [7] -0.012 | [8] -0.027 | [9] -0.042 | [10] 0.013

HELZ (UniProt P42694)
inactive: [1] -0.095 | [2] -0.18 | [3] -0.054 | [5] 0.087 | [6] -0.161 | [7] 0.14 | [8] -0.017 | [9] 0.006 | [10] 0.136

GTSE1 (UniProt Q9NYZ3)
inactive: [1] 0.271 | [2] -0.016 | [3] 0.157 | [4] 0.045 | [5] 0.05 | [6] 0.011 | [7] 0.3 | [8] 0.045 | [9] 0.003 | [10] -0.01

HBD (UniProt P02042)
inactive: [1] 0.06 | [2] 0.068 | [3] -0.054 | [4] -0.008 | [5] -0.017 | [6] 0.007 | [7] 0.016 | [8] 0.002 | [9] -0.07 | [10] 0.005

HEPH isoform 3 (UniProt Q9BQS7)
inactive: [1] -0.07 | [2] -0.048 | [3] 0.048 | [4] 0.065 | [5] -0.042 | [6] -0.008 | [7] 0.022 | [8] -0.038 | [9] 0.08 | [10] -0.026

HDGF (UniProt P51858)
inactive: [1] 0.023 | [2] 0.029 | [3] -0.032 | [4] 0.012 | [5] -0.023 | [6] -0.039 | [7] -0.073 | [8] -0.029 | [9] 0 | [10] 0.034

GTF2F2 (UniProt P13984)
inactive: [1] -0.014 | [2] -0.026 | [3] -0.073 | [4] 0.002 | [5] -0.01 | [6] -0.069 | [7] -0.044 | [8] -0.022 | [9] 0.006 | [10] -0.005

HGF (UniProt P14210)
inactive: [1] 0.342 | [2] 0.127 | [3] 0.045 | [4] -0.15 | [7] -0.129 | [8] 0.041 | [9] 0.011

H3-3A (UniProt P84243)
inactive: [1] -0.094 | [2] -0.356 | [4] 0.203 | [5] 0.002 | [6] 0 | [7] 0.031 | [8] 0.189 | [9] 0.034 | [10] 0.102

GTF3C6 (UniProt Q969F1)
inactive: [1] 0.051 | [2] -0.003 | [3] 0.07 | [4] 0.068 | [6] -0.103 | [7] 0.04 | [8] -0.05 | [9] -0.017 | [10] 0.007

HBS1L isoform 2 (UniProt Q9Y450)
inactive: [1] 0.058 | [2] -0.006 | [3] -0.093 | [4] 0.024 | [5] -0.026 | [6] 0 | [7] -0.047 | [8] 0.085 | [9] 0.03 | [10] 0.089

GSPT2 (UniProt Q8IYD1)
inactive: [1] 0.147 | [2] -0.005 | [3] -0.307 | [5] 0.08 | [6] 0.057 | [7] 0.02 | [8] 0.051 | [9] 0.045 | [10] -0.065
